The nature of this data set: general procedure: solution-phase peptide synthesis; EDC/HOBt; pentafluorophenol/DCC; mixed anhydride (IBCF/NMM). Conditions: coupling step.
For the substance “Cbz-Ile-Glu(O-tBu)-Thr-AAsp(O-tBu)-(2S,3S)-EP-CO—N(BzI)2”, the step yield result was “yield 37%”. With “Cbz-Leu-Glu(O-tBu)-Thr-AAsp(O-tBu)-(2S,3S)-EP-COOCH2Ph”, the step yield entry was “yield 44%”. The entry for “PhPr-Val-Ala-AAsp(O-tBu)-(2S,3S)-EP-CO-Ala-NHBzl” is “yield 41%”; for “PhPr-Val-Ala-AAsp(O-tBu)-(2S,3S)-EP-CO-Phe-NH2” it is “yield 39%”.

Regarding “Cbz-Ile-Glu(O-tBu)-Thr-AAsp(O-tBu)-(2S,3S)-EP-CO—N(CH3)Bzl”, the step yield entry is “yield 42%”.

As for “Cbz-Ile-Glu(O-tBu)-Thr-AAsp(O-tBu)-(2R,3R)-EP-CONHCH2Ph”, the step yield entry is recorded as “yield 47%”. For “Cbz-Ile-Glu(O-tBu)-Thr-AAsp(O-tBu)-(2S,3S)-EP-CO-Ala-NHBzl”, the step yield entry is given as “yield 36%”.

Regarding “Cbz-Leu-Glu(O-tBu)-Thr-AAsp(O-tBu)-(2R,3R)-EP-COOEt”, the step yield result is on record as “yield 16%”. Then “PhPr-Val-Ala-AAsp(O-tBu)-(2R,3R)-EP-CO-Ala-NHBzl”, with “yield 50%”. Then “Cbz-Leu-Glu(O-tBu)-Thr-AAsp(O-tBu)-(2S,3S)-EP-CON(Bzl)2”, with “yield 41%”; and “PhPr-Val-Ala-AAsp(O-tBu)-(2S,3S)-EP-CO-Tyr-NH2”, with “yield 50%”. The entry for “Cbz-Asp(O-tBu)-Glu(O-tBu)-Val-AAsp(O-tBu)-(2S,3S)-EP-COOEt” is “yield 58%”; for “Cbz-Glu(O-tBu)-Val-AAsp(O-tBu)-(2R,3R)-EP-CO-Phe-NH2” it is “yield 32%”; for “Cbz-Ile-Glu(O-tBu)-Thr-AAsp(O-tBu)-(2S,3S)-EP-COOCH2Ph” it is “yield 38%”. Take “Cbz-Ile-Glu(O-tBu)-Thr-AAsp(O-tBu)-(2R,3R)-EP-COOCH2Ph”: the step yield entry was “yield 37%”. Regarding “Cbz-Leu-Glu(O-tBu)-Thr-AAsp(O-tBu)-(2S,3S)-EP-CON(CH3)Bzl”, the step yield result was “yield 53%”.

Take “Cbz-Asp(O-tBu)-Glu(O-tBu)-Val-AAsp(O-tBu)-(2S,3S)-EP-COOCH2Ph”: the step yield result is “yield 23%”. The entry for “Cbz-Ala-Ala-AAsn-(2R,3R)-EP-CO-Ala-NHBzl” is “yield 4%”; for “PhPr-Val-Ala-AAsp(O-tBu)-(2R,3R)-EP-CO-Phe-NH2” it is “yield 56%”; for “Cbz-Ile-Glu(O-tBu)-Thr-AAsp(O-tBu)-(2R,3R)-EP-COOEt” it is “yield 43%”.

For “Cbz-Asp(O-tBu)-Glu(O-tBu)-Val-AAsp(O-tBu)-(2S,3S)-EP-CONHCH2Ph”, the step yield result is reported as “yield 31%”. Then “Cbz-Ile-Glu(O-tBu)-Thr-AAsp(O-tBu)-(2S,3S)-EP-COOEt”, with “yield 37%”; and “Cbz-Leu-Glu(O-tBu)-Thr-AAsp(O-tBu)-(2S,3S)-EP-CONHCH2CH2Ph”, with “yield 52%”; and “Cbz-Leu-Glu(O-tBu)-Thr-AAsp(O-tBu)-(2S,3S)-EP-CO-Ala-NHBzl”, with “yield 42%”.

Take “PhPr-Val-Ala-AAsp(O-tBu)-(2S,3S)-EP-CO-Leu-NH2”: the step yield entry is given as “yield 23%”. Then “PhPr-Val-Ala-AAsp(O-tBu)-(2R,3R)-EP-CO-Leu-NH2”, with “yield 64%”.

On to “Cbz-Asp(O-tBu)-Glu(O-tBu)-Val-AAsp(O-tBu)-(2R,3R)-EP-COOEt”, for which the step yield entry is reported as “yield 57%”. Then “Cbz-Leu-Glu(O-tBu)-Thr-AAsp(O-tBu)-(2S,3S)-EP-COOEt”, with “yield 44%”.

Values taken from patent US7056947B2 (Georgia Tech Research Corp., priority 2002, dated 2006).
